PubChem BioAssay AID493246, Drosophila RNAi Screening Center | 2011
Screen: 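Genes fly cells need to grow and stay alive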 (primary screen). Cells: Drosophila Kc and S2R+ cells. Reagents: long dsRNA against Drosophila genes. Measurement: 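Raw, unnormalised count of remaining cells in each well; per-plate z-scores of cell number underlie the calls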. Reading the numbers: Kc cell number and S2R+ cell number: higher = more cells remaining. Hit rule: 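Counted as a hit if cell number falls by a z-score of at least 3 within its plate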.
In all, the deposit lists about 21,000 reagents; this is a random part of those with a known target gene and a result. In the full data, 429 (2%) were called active. 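Values are raw and not normalised between plates; calls rest on per-plate z-scores that were not deposited.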 Entries without a mark were called inactive. The numbers tell different reagents against one gene apart. Names joined by + are all predicted targets of the reagent. No sequences are given here. Not given: the amount of reagent, the time to read-out.

CG11696 | Kc cell number, rep 1: 5.38e5; S2R+ cell number, rep 1: 7.64e5
CG16813 | Kc cell number, rep 1: 1.65e6; Kc cell number, rep 2: 1.70e6; S2R+ cell number, rep 1: 1.31e6; S2R+ cell number, rep 2: 1.52e6
Cpr65Az | Kc cell number, rep 1: 1.62e6; Kc cell number, rep 2: 1.58e6; S2R+ cell number, rep 1: 1.34e6; S2R+ cell number, rep 2: 1.25e6
lncRNA:sphinx + ATPsynF | Kc cell number, rep 1: 1.60e6; Kc cell number, rep 2: 1.55e6; S2R+ cell number, rep 1: 9.08e5; S2R+ cell number, rep 2: 1.03e6
Nse4 | Kc cell number, rep 1: 1.89e6; Kc cell number, rep 2: 1.99e6; S2R+ cell number, rep 1: 1.27e6; S2R+ cell number, rep 2: 1.51e6
ND-19 | Kc cell number, rep 1: 1.68e6; Kc cell number, rep 2: 1.71e6; S2R+ cell number, rep 1: 1.23e6; S2R+ cell number, rep 2: 1.39e6
XRCC1 | Kc cell number, rep 1: 5.67e5; S2R+ cell number, rep 1: 8.66e5
CG18598 | Kc cell number, rep 1: 1.47e6; Kc cell number, rep 2: 1.43e6; S2R+ cell number, rep 1: 1.13e6; S2R+ cell number, rep 2: 1.29e6
CG17754 | Kc cell number, rep 1: 5.45e5; S2R+ cell number, rep 1: 9.39e5
CHKov2 | Kc cell number, rep 1: 7.36e5; S2R+ cell number, rep 1: 8.75e5

4 of these entries in another layout:
predicted target | dsRNA no. | Kc cell number, rep 1 | Kc cell number, rep 2 | S2R+ cell number, rep 1 | S2R+ cell number, rep 2
XRCC1 | 1 | 5.67e5 | – | 8.66e5 | –
CG18598 | 1 | 1.47e6 | 1.43e6 | 1.13e6 | 1.29e6
CG17754 | 1 | 5.45e5 | – | 9.39e5 | –
CHKov2 | 1 | 7.36e5 | – | 8.75e5 | –

More reagents follow:
GatB | Kc cell number, rep 1: 1.63e6; Kc cell number, rep 2: 1.60e6; S2R+ cell number, rep 1: 1.02e6; S2R+ cell number, rep 2: 1.12e6
Rab27 | Kc cell number, rep 1: 5.33e5; S2R+ cell number, rep 1: 8.49e5
CG9452 | Kc cell number, rep 1: 1.22e6; Kc cell number, rep 2: 1.37e6; S2R+ cell number, rep 1: 1.26e6; S2R+ cell number, rep 2: 1.34e6
Sps2 | Kc cell number, rep 1: 1.64e6; Kc cell number, rep 2: 1.69e6; S2R+ cell number, rep 1: 1.15e6; S2R+ cell number, rep 2: 1.29e6
Ccdc85 | Kc cell number, rep 1: 1.24e6; Kc cell number, rep 2: 1.15e6; S2R+ cell number, rep 1: 7.52e5; S2R+ cell number, rep 2: 8.67e5
Polr2E | Kc cell number, rep 1: 1.50e6; Kc cell number, rep 2: 1.57e6; S2R+ cell number, rep 1: 9.92e5; S2R+ cell number, rep 2: 1.12e6
CG8067 | Kc cell number, rep 1: 1.37e6; Kc cell number, rep 2: 1.47e6; S2R+ cell number, rep 1: 1.14e6; S2R+ cell number, rep 2: 1.21e6
CalpB | Kc cell number, rep 1: 1.26e6; Kc cell number, rep 2: 1.33e6; S2R+ cell number, rep 1: 1.35e6; S2R+ cell number, rep 2: 1.02e6
CG9458 | Kc cell number, rep 1: 1.59e6; Kc cell number, rep 2: 1.63e6; S2R+ cell number, rep 1: 1.33e6; S2R+ cell number, rep 2: 1.37e6
Spn88Ea | Kc cell number, rep 1: 1.21e6; Kc cell number, rep 2: 1.24e6; S2R+ cell number, rep 1: 1.09e6; S2R+ cell number, rep 2: 1.22e6
CG8490 | Kc cell number, rep 1: 1.60e6; Kc cell number, rep 2: 1.67e6; S2R+ cell number, rep 1: 8.03e5; S2R+ cell number, rep 2: 1.18e6
CCT8 | Kc cell number, rep 1: 1.39e6; Kc cell number, rep 2: 1.44e6; S2R+ cell number, rep 1: 1.17e6; S2R+ cell number, rep 2: 1.32e6
Ank2 #1 | Kc cell number, rep 1: 1.67e6; Kc cell number, rep 2: 1.73e6; S2R+ cell number, rep 1: 1.18e6; S2R+ cell number, rep 2: 1.32e6
Ank2 #2 | Kc cell number, rep 1: 1.39e6; Kc cell number, rep 2: 1.26e6; S2R+ cell number, rep 1: 1.25e6; S2R+ cell number, rep 2: 1.30e6
Ank2 #3 | Kc cell number, rep 1: 1.34e6; Kc cell number, rep 2: 1.35e6; S2R+ cell number, rep 1: 1.21e6; S2R+ cell number, rep 2: 1.21e6
Ank2 #4 | Kc cell number, rep 1: 1.28e6; Kc cell number, rep 2: 1.36e6; S2R+ cell number, rep 1: 1.13e6; S2R+ cell number, rep 2: 1.22e6
CG9498 | Kc cell number, rep 1: 1.67e6; Kc cell number, rep 2: 1.60e6; S2R+ cell number, rep 1: 1.20e6; S2R+ cell number, rep 2: 1.45e6
